The subject of the assay is NO production in lipopolysaccharide-induced BV-2 microglia. Description: Inhibition of NO production in lipopolysaccharide-induced BV-2 microglia. Type of assay: cell-based. The following applies: Mus musculus.

Like-named read-outs stand apart in the source and are kept apart here.

As usually defined, the EC50 is the concentration that produces a half-maximal response. In the case of `Clc1ccc(CO/N=C(\Cn2ccnc2)c2ccc(Cl)cc2Cl)c(Cl)c1` [oxiconazole, reference compound], the EC50 (read-out: EC50 (inhibition of NO production)) turned out to be 13.5 µM and the EC50 (read-out: EC50 (inhibitory effect on the NO production)) was 13.5 ± 0.1 µM.
